{
  "source": "patent US7183323B2",
  "about": "“Sodium channel modulators” (Theravance, Inc., priority 2000, dated 2007)",
  "note": "Some results were stated once for a whole list of compounds, not compound by compound.",
  "data": [
    {"tested_on": "sodium channel", "assay": "Sodium channel activity in neonatal rat cerebellar granule neurons: veratridine-evoked [Ca2+]i increase, FLIPR", "assay_type": "cell-based", "details": "at 100 μM, the highest concentration tested; no IC50 value obtained", "values": [
      {"smiles": "Cc1cc(Cc2cc(C)c(O[C@@H]3CN[C@H](C(=O)O)C3)c(C)c2)cc(C)c1O[C@@H]1CN[C@H](C(=O)O)C1", "note": "[Example 45]", "inhibition of the control response": "less than 50%"},
      {"smiles": "Cc1cc(Cc2cc(C)c(O[C@@H]3CN[C@H](CO)C3)c(C)c2)cc(C)c1O[C@@H]1CN[C@H](CO)C1", "note": "[Example 47]", "inhibition of the control response": "less than 50%"},
      {"smiles": "Cc1cc(CCc2cc(C)c(OCCN3CCOCC3)c(C)c2)cc(C)c1OCCN1CCOCC1", "note": "[Example 60]", "inhibition of the control response": "less than 50%"},
      {"smiles": "CN1CCC(Oc2cccc(Nc3cccc(OC4CCN(C)C4)c3)c2)C1", "note": "(centres unmarked) [Example 84]", "inhibition of the control response": "less than 50%"},
      {"smiles": "c1cc(Nc2cccc(OCCN3CCOCC3)c2)cc(OCCN2CCOCC2)c1", "note": "[Example 85]", "inhibition of the control response": "less than 50%"},
      {"smiles": "c1cc(OCCOc2cccc(OC3CCNC3)c2)cc(OC2CCNC2)c1", "note": "(centres unmarked) [Example 100]", "inhibition of the control response": "less than 50%"},
      {"smiles": "CCC(c1ccc(OC2CCN(C)CC2)cc1)C(CC)c1ccc(OC2CCN(C)CC2)cc1", "note": "(centres unmarked) [Example 111]", "inhibition of the control response": "less than 50%"},
      {"smiles": "CN1CCC(Oc2ccccc2Oc2ccccc2OC2CCN(C)C2)C1", "note": "(centres unmarked) [Example 135]", "inhibition of the control response": "less than 50%"},
      {"smiles": "c1ccc(Oc2ccccc2OCCN2CCOCC2)c(OCCN2CCOCC2)c1", "note": "[Example 136]", "inhibition of the control response": "less than 50%"},
      {"smiles": "CN1CCC(Oc2ccccc2Oc2ccccc2OC2CCN(C)CC2)CC1", "note": "[Example 138]", "inhibition of the control response": "less than 50%"},
      {"smiles": "CC(CN(C)C)Oc1ccccc1Oc1ccccc1OC(C)CN(C)C", "note": "(centres unmarked) [Example 140]", "inhibition of the control response": "less than 50%"},
      {"smiles": "CN1CCCC1CCOc1ccccc1Oc1ccccc1OCCC1CCCN1C", "note": "(centres unmarked) [Example 142]", "inhibition of the control response": "less than 50%"},
      {"smiles": "CN1CCC(Oc2ccc(Oc3ccc(OC4CCN(C)C4)cc3)cc2)C1", "note": "(centres unmarked) [Example 144]", "inhibition of the control response": "less than 50%"},
      {"smiles": "c1cc(Oc2ccc(OCCN3CCOCC3)cc2)ccc1OCCN1CCOCC1", "note": "[Example 145]", "inhibition of the control response": "less than 50%"},
      {"smiles": "CN1CCC(Oc2ccc(Oc3ccc(OC4CCN(C)CC4)cc3)cc2)CC1", "note": "[Example 147]", "inhibition of the control response": "less than 50%"},
      {"smiles": "CN1CCCCC1COc1ccc(Oc2ccc(OCC3CCCCN3C)cc2)cc1", "note": "(centres unmarked) [Example 151]", "inhibition of the control response": "less than 50%"}
    ]},
    {"tested_on": "sodium channel", "assay": "Sodium channel activity in neonatal rat cerebellar granule neurons: veratridine-evoked [Ca2+]i increase, FLIPR", "assay_type": "cell-based", "details": "veratridine (40 μM)-evoked increase in intracellular Ca2+, fluo-4/AM loaded rat cerebellar granule neurons, FLIPR", "units": {"IC50": "µM"}, "values": [
      {"smiles": "Cc1cc(Cc2cc(C)c(OC[C@H](C)N)c(C)c2)cc(C)c1OC[C@H](C)N", "note": "[Example 27]", "IC50": "< 100"},
      {"smiles": "Cc1cc(Cc2cc(C)c(OC3CCN(C)C3)c(C)c2)cc(C)c1OC1CCNC1", "note": "(centres unmarked) [Example 41]", "IC50": "< 100"},
      {"smiles": "Cc1cc(Cc2cc(C)c(O[C@H]3CCN(C)C3)c(C)c2)cc(C)c1O[C@H]1CCN(C)C1", "note": "[Example 42]", "IC50": "< 100"},
      {"smiles": "Cc1cc(Cc2cc(C)c(O[C@@H]3CN[C@H](C)C3)c(C)c2)cc(C)c1O[C@@H]1CN[C@H](C)C1", "note": "[Example 44]", "IC50": "< 100"},
      {"smiles": "Cc1cc(Cc2cc(C)c(O[C@H]3CN[C@@H](C(=O)N(C)C)C3)c(C)c2)cc(C)c1O[C@H]1CN[C@@H](C(=O)N(C)C)C1", "note": "[Example 46]", "IC50": "< 100"},
      {"smiles": "COC[C@@H]1C[C@H](Oc2c(C)cc(Cc3cc(C)c(O[C@@H]4CN[C@H](COC)C4)c(C)c3)cc2C)CN1", "note": "[Example 48]", "IC50": "< 100"},
      {"smiles": "Cc1cc(CCc2cc(C)c(OC(C)CN(C)C)c(C)c2)cc(C)c1OC(C)CN(C)C", "note": "(centres unmarked) [Example 61]", "IC50": "< 100"},
      {"smiles": "Cc1cc(CCc2cc(C)c(OCCC3CCN(C)C3)c(C)c2)cc(C)c1OCCC1CCN(C)C1", "note": "(centres unmarked) [Example 62]", "IC50": "< 100"},
      {"smiles": "C[C@@H](N)COc1ccc(Cl)cc1Cc1cc(Cl)ccc1OC[C@@H](C)N", "note": "[Example 96]", "IC50": "< 100"},
      {"smiles": "CN(C)CC(C)(C)COc1ccc(Cl)cc1Cc1cc(Cl)ccc1OCC(C)(C)CN(C)C", "note": "[Example 97]", "IC50": "< 100"},
      {"smiles": "CCC(c1ccc(OCC2CCCN(C)C2)cc1)C(CC)c1ccc(OCC2CCCN(C)C2)cc1", "note": "(centres unmarked) [Example 112]", "IC50": "< 100"},
      {"smiles": "CN(C)CC(C)(C)COc1ccccc1Oc1ccccc1OCC(C)(C)CN(C)C", "note": "[Example 137]", "IC50": "< 100"},
      {"smiles": "CN1CCCC(COc2ccccc2Oc2ccccc2OCC2CCCN(C)C2)C1", "note": "(centres unmarked) [Example 139]", "IC50": "< 100"},
      {"smiles": "CN1CCCCC1CCOc1ccccc1Oc1ccccc1OCCC1CCCCN1C", "note": "(centres unmarked) [Example 141]", "IC50": "< 100"},
      {"smiles": "CN1CCCCC1COc1ccccc1Oc1ccccc1OCC1CCCCN1C", "note": "(centres unmarked) [Example 143]", "IC50": "< 100"},
      {"smiles": "CN(C)CC(C)(C)COc1ccc(Oc2ccc(OCC(C)(C)CN(C)C)cc2)cc1", "note": "[Example 146]", "IC50": "< 100"}
    ]}
  ]
}
